Test results as given in PMC12441012.

Columns and labels:
[1] = tested on: AcNAC30 (Actinidia chinensis); test: EMSA; settings: Kit binding buffer (Beyotime chemiluminescent EMSA kit; composition, salt and pH not stated), room temperature 30 min, 6% polyacrylamide gel (printed as denaturing); recombinant protein; protein details: GST (N-terminal, pGEX-4T-1); label: biotin
[2] = tested on: AcNAC30 (Actinidia chinensis); test: competition with a labelled probe; settings: unlabelled probe 0x-200x, dose-dependent reduction of shift of N1; Kit binding buffer (Beyotime chemiluminescent EMSA kit; composition, salt and pH not stated), room temperature 30 min, 6% polyacrylamide gel (printed as denaturing); recombinant protein; protein details: GST (N-terminal, pGEX-4T-1); label: none (unlabelled competitor)

Sequence	binding result [1]	binding result [2]
TATAAAGATAATGAACATGTCCGACGCTGACCAC (double strand) [AcP5CS1 promoter EMSA probe]	binds	
TATAAAGATAATGAACATGTCCGACGCTGACCAC (double strand) [AcP5CS1 promoter cold probe]		binds

The exact form of at least one protein or probe is not confirmed.
